Experimental data taken from patent US11713435B2, “Aminocarboxylate chelating agents and detergent compositions containing them” (EASTMAN CHEMICAL COMPANY, priority 2018, dated 2023).

Assay: Stain removal of liquid laundry cleaning compositions on stained fabric swatches (ASTM D4265)
Conditions: composition of Table 2 with 2.0 wt % chelating agent

SMILES | stain removal index (SRI) (stain: Motor Oil) | stain removal index (SRI) (stain: animal fat/red dye) | stain removal index (SRI) (stain: babyfood) | stain removal index (SRI) (stain: beta-carotene) | stain removal index (SRI) (stain: blood) | stain removal index (SRI) (stain: butter) | stain removal index (SRI) (stain: clay) | stain removal index (SRI) (stain: curry) | stain removal index (SRI) (stain: dessert (chocolate)) | stain removal index (SRI) (stain: grass) | stain removal index (SRI) (stain: make-up) | stain removal index (SRI) (stain: peat) | stain removal index (SRI) (stain: red wine) | stain removal index (SRI) (stain: tea) | stain removal index (SRI) (stain: tomato sauce)
O=C(O)CN(CCN(CC(=O)O)CC(=O)O)CCN(CC(=O)O)CC(=O)O [DTPA, reference compound] | 38.51 | 5.93 | 30.70 | 34.09 | 80.56 | 13.76 | 22.23 | 18.07 | 41.71 | 49.99 | 12.79 | 49.81 | 27.93 | 4.29 | 19.00
O=C(O)CN(CCN(CC(=O)O)CC(=O)O)CC(=O)O [EDTA, reference compound] | 37.43 | 7.49 | 28.50 | 38.62 | 81.31 | 12.78 | 18.32 | 21.03 | 44.56 | 53.50 | 15.09 | 52.40 | 27.77 | 5.46 | 18.85
CC(CC(=O)[O-])N(CC(=O)[O-])CC(=O)[O-].[Na+].[Na+].[Na+] (stereo not drawn) [I, trisodium 2,2′-((1-carboxypropan-2-yl)azanediyl)diacetate] | 35.46 | 5.17 | 31.45 | 33.50 | 81.16 | 11.38 | 23.72 | 19.75 | 42.46 | 50.49 | 13.78 | 49.99 | 26.11 | 5.53 | 24.83
CC(C)(CNC(CC(=O)[O-])C(=O)[O-])CNC(CC(=O)[O-])C(=O)[O-].[Na+].[Na+].[Na+].[Na+] (stereo not drawn) [II, tetrasodium 2,2′-((2,2-dimethylpropane-1,3-diyl)bis(azanediyl))disuccinate] | 36.58 | 5.46 | 32.26 | 38.40 | 81.81 | 11.95 | 24.22 | 18.43 | 44.02 | 54.10 | 14.31 | 53.70 | 25.77 | 4.77 | 20.90
O=C([O-])CN(CC(=O)[O-])CC1CCC(CN(CC(=O)[O-])CC(=O)[O-])CC1.[Na+].[Na+].[Na+].[Na+] (stereo not drawn) [III, tetrasodium 2,2′,2″,2″-((cyclohexane-1,4-diylbis(methylene))bis(azanetriyl))tetraacetate] | 35.83 | 6.11 | 26.30 | 39.38 | 78.33 | 9.73 | 17.93 | 17.44 | 33.02 | 50.90 | 11.97 | 50.69 | 24.64 | 3.13 | 21.67
O=C([O-])CC(NCC1CCC(CNC(CC(=O)[O-])C(=O)[O-])CC1)C(=O)[O-].[Na+].[Na+].[Na+].[Na+] (stereo not drawn) [IV, Tetrasodium 2,2′-((cyclohexane-1,4-diylbis(methylene))bis(azanediyl))disuccinic acid] | 35.09 | 4.66 | 33.07 | 39.74 | 81.76 | 3.73 | 21.51 | 17.19 | 40.09 | 50.01 | 11.84 | 51.32 | 22.46 | 3.26 | 22.23
